The results in this text go back to doi:10.1101/2019.12.11.872267 (bioRxiv, 2019).

Read-outs that look alike come from different tables or passages of the source. Results are given in words; binding and its absence hold for the method and conditions named. Some results given as binding are weak or reduced against the parent protein; the word gives no strength.

What all share (assay): negative stain electron microscopy
Assay [1] addresses Drosophila P5CS, purified from E. coli (Drosophila) (UniProt Q9VNW6).
Assay [2] shares this target. This is another data set of the same source.
The target of assay [3] is Drosophila CTPS, purified from E. coli (Drosophila) (UniProt Q9VUL1).

B1: Drosophila P5CS, purified from E. coli (enzyme, UniProt Q9VNW6 1-776, looked up)
chain: MLQNSFKLAQSLRNGFYRNAWRAFSSHGPRQPLVSPERRLEKAHPTFTERSQLKYARRLVVKLGSAVITREDNHGLALGRLASIVEQVAECHLEGREVMMVTSGAVAFGKQKLAQELLMSLSMRETLNPKDSKEFDGATLEPRAAAAVGQSGLMSLYDAMFAQYGVKIAQVLVTKPDFYNEETRNNLFCTLSELISLNIVPIINTNDAVSPPMFIRDDEPAGGARRGIPIKDNDSLSAMLAAEVQADLLILMSDVDGIYNKPPWEDGAKLMHTYTSDDSNSIEFGKKSKVGTGGMDSKVKAATWALDRGVSVVICNGMQEKAIKTIIGGRKVGTFFTEATESANAVPVEVMAENARTGSRQMQALTPAQRASAVNTLADLLVSREKFILDANAKDLAEAQKSGLAKPLLSRLSLNPAKLKNLSVGLKQIAEDSHKNVGRVLRRTRLADQLELKQVTVPIGVLLVIFESRPDSLPQVAALAMASANGLLLKGGKEAAHSNKALMELVKEALATVGAEHAVSLVSTREEISDLLSMENHIDLIIPRGSSDLVRSIQQQSLHIPVLGHAEGVCHVYIDRDADLEKALRIARDAKCDYPAACNAMETLLIHEDLMSGAIFGDVCNMLKREGVKIYAGPRLNQQLTFGPPAAKSLKHEYGALECCIEVVPSLDEAINHIHTYGSSHTDVIVTENDAAARQFLGSVDSACVFHNASSRFADGFRFGLGAEVGISTARIHARGPVGVEGLLTTKWILEGQDHAAADFAEGGGRTWLHETLPLD
B1: the binding result in assay [1] and in assay [2] was “binds weakly” throughout.

B2: Drosophila CTPS, purified from E. coli (enzyme, UniProt Q9VUL1 1-627)
chain: MKYILVTGGVISGVGKGVIASSFGTLLKSCGLDVTSIKIDPYINIDAGTFSPYEHGEVYVLDDGAEVDLDLGNYERFLDVTLHRDNNITTGKIYKLVIEKERTGEYLGKTVQVVPHITDAIQEWVERVAQTPVQGSSKPQVCIVELGGTIGDIEGMPFVEAFRQFQFRVKRENFCLAHVSLVPLPKATGEPKTKPTQSSVRELRGCGLSPDLIVCRSEKPIGLEVKEKISNFCHVGPDQVICIHDLNSIYHVPLLMEQNGVIEYLNERLQLNIDMSKRTKCLQQWRDLARRTETVRREVCIAVVGKYTKFTDSYASVVKALQHAALAVNRKLELVFIESCLLEEETLHSEPSKYHKEWQKLCDSHGILVPGGFGSRGMEGKIRACQWARENQKPLLGICLGLQAAVIEFARNKLGLKDANTTEIDPNTANALVIDMPEHHTGQLGGTMRLGKRITVFSDGPSVIRQLYGNPKSVQERHRHRYEVNPKYVHLLEEQGMRFVGTDVDKTRMEIIELSGHPYFVATQYHPEYLSRPLKPSPPFLGLILASVDRLNQYIQRGCRLSPRQLSDASSDEEDSVVGLAGATKSLSSLKIPITPTNGISKSCNGSISTSDSEGACGGVDPTNGHK
Turning to B2, the binding result in assay [3] is on record as “binds”.
